In patent US9278925B2, “Substituted 3-(biphenyl-3-yl)-4-hydroxy-8-methoxy-1-azaspiro[4.5]dec-3-en-2-one” (BAYER INTELLECTUAL PROPERTY GMBH, priority 2011, dated 2016):

Tested on: human ACC1
Test: Human ACC1 enzyme assay (ADP-Glo)
Format: biochemical
Settings: pairwise, same dilution series

SMILES	Ratio IC50s ACC2/ACC1 (respective measurement)	Ratio IC50s ACC2/ACC1 (respective measurement) (listed as V.4-a)
CO[C@]1(C)CC[C@]2(CC1)NC(=O)C(c1cc(-c3ccc(Cl)cc3)ccc1C)=C2O [Example V.1-a, (5r,8r)-3-(4′-Chloro-4-methylbiphenyl-3-yl)-4-hydroxy-8-methoxy-8-methyl-1-azaspiro[4.5]dec-3-en-2-one]	35 and 36	–
CO[C@]1(C)CC[C@]2(CC1)NC(=O)C(c1cc(-c3ccc(Cl)c(F)c3)ccc1C)=C2O [Example V.2-a, (5r,8r)-3-(4′-Chloro-3′-fluoro-4-methylbiphenyl-3-yl)-4-hydroxy-8-methoxy-8-methyl-1-azaspiro[4.5]dec-3-en-2-one]	44.5, 24.8, 38.5	44.5, 24.8, 38.5

A number of entries come with more than one value. The other results are left out here. The source may hold further records. The values listed for one entry differ, and nothing given here explains why; some may be repeats, others may stem from another dose, organism or construct than stated.
